# This is one part of the list.
# Key:
# Experiment in all cases: glycan array binding signal (z-score within array); higher = stronger binding
# Settings in all cases: glycan notation: IUPAC condensed, linker removed
# [1] = target: Gal3S(b1-3)[Fuc(a1-4)]GlcNAc
# Summary of the method: (§1)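 The Consortium for Functional Glycomics database supplied 3228 glycan arrays, of which those lacking an available protein sequence were dropped. The binding signal, a within-array Z-score, was averaged across arrays of the same protein sequence and across linkers. Negative scores can be read as non-binding.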
# [2] = target: Gal3S(b1-4)Glc
# Summary of the method: as §1
# [3] = target: Gal3S(b1-4)Glc6S
# Summary of the method: as §1
# [4] = target: Gal3S(b1-4)GlcNAc
# Summary of the method: as §1
# [5] = target: Gal3S(b1-4)GlcNAc6S
# Summary of the method: as §1
# [6] = target: Gal3S(b1-4)[Fuc(a1-3)]Glc
# Summary of the method: as §1
# [7] = target: Gal3S(b1-4)[Fuc(a1-3)]Glc6S
# Summary of the method: as §1
# [8] = target: Gal3S4S(b1-4)GlcNAc
# Summary of the method: as §1
# [9] = target: Gal3S6S(b1-4)GlcNAc
# Summary of the method: as §1
# [10] = target: Gal3S6S(b1-4)GlcNAc6S
# Summary of the method: as §1
# [11] = target: Gal4S(b1-4)GlcNAc
# Summary of the method: as §1
# [12] = target: Gal4S6S(b1-4)GlcNAc
# Summary of the method: as §1
# [13] = target: Gal6S(b1-3)GlcNAc
# Summary of the method: as §1
# [14] = target: Gal6S(b1-3)GlcNAc6S
# Summary of the method: as §1
# [15] = target: Gal6S(b1-4)Glc
# Summary of the method: as §1
# [16] = target: Gal6S(b1-4)Glc6S
# Summary of the method: as §1
# [17] = target: Gal6S(b1-4)GlcNAc
# Summary of the method: as §1
# [18] = target: Gal6S(b1-4)GlcNAc6S
# Summary of the method: as §1
# [19] = target: GalNAc(a1-3)Gal
# Summary of the method: as §1
# [20] = target: GalNAc(a1-3)GalNAc
# Summary of the method: as §1
# [21] = target: GalNAc(a1-3)GalNAc(a1-3)Gal(a1-4)Gal(b1-4)GlcNAc
# Summary of the method: as §1
# [22] = target: GalNAc(a1-3)GalNAc(b1-3)Gal(a1-4)Gal(b1-4)Glc
# Summary of the method: as §1
# [23] = target: GalNAc(b1-3)Gal
# Summary of the method: as §1
# [24] = target: GalNAc(b1-3)Gal(a1-4)Gal(b1-4)GlcNAc
# Summary of the method: as §1
# [25] = target: GalNAc(b1-3)Gal(a1-4)Gal(b1-4)GlcNAc(b1-3)Gal(b1-4)Glc
# Summary of the method: as §1
# [26] = target: GalNAc(b1-3)Gal(a1-6)Gal(b1-4)Glc
# Summary of the method: as §1
# [27] = target: GalNAc(b1-3)GalNAc
# Summary of the method: as §1
# [28] = target: GalNAc(b1-4)Gal(b1-4)Glc
# Summary of the method: as §1
# [29] = target: GalNAc(b1-4)GlcNAc
# Summary of the method: as §1
# [30] = target: GalNAc(b1-4)GlcNAc(b1-2)Man(a1-3)[GalNAc(b1-4)GlcNAc(b1-2)Man(a1-6)]Man(b1-4)GlcNAc(b1-4)GlcNAc
# Summary of the method: as §1
# [31] = target: GalNAc(b1-6)GalNAc
# Summary of the method: as §1
# [32] = target: Glc(a1-4)Glc
# Summary of the method: as §1
# [33] = target: Glc(a1-4)Glc(a1-4)Glc(a1-4)Glc
# Summary of the method: as §1
# [34] = target: Glc(a1-6)Glc(a1-6)Glc
# Summary of the method: as §1
# [35] = target: Glc(a1-6)Glc(a1-6)Glc(a1-6)Glc
# Summary of the method: as §1
# [36] = target: Glc(b1-4)Glc
# Summary of the method: as §1
# [37] = target: Glc(b1-6)Glc
# Summary of the method: as §1
binder,measurement,setting,value
"Layilin (Mus musculus), Q8C351 (protein) MQPGAALQAMLLAVLLAKPRDSKGRLLSASDLDPRGGQLVCRGGTRRPCYKVIYFHDAFQRLNFEEAKETCMEDGGQLVSIETEDEQRLIEKFIENLLASDGDFWIGLKRLEEKQSNNTACQDLYAWTDGSTSQFRNWYVDEPSCGSEVCVVMYHQPSAPPGIGGSYMFQWNDDRCNMKNNFICKYHDDKPSTTPSIWPGGEATEPATPLLPEETQKEDTKETFKERREAALNLAYILIPSIPLFLLLVVTSAVCWVWICRRKREQTDPSTKEQHTIWPTPRQENSPNLDVYNVIRKQSEADLAEPRPDLKNISFRVCSGEAMPDDMSCDYENIAVNPSESGFVTLASMESGFVTNDIYEFSPDRMGRSKESGWVENEIYY",glycan array binding signal (z-score),[1],-0.293
same,glycan array binding signal (z-score),[2],-0.09
same,glycan array binding signal (z-score),[3],-0.128
same,glycan array binding signal (z-score),[4],0.53
same,glycan array binding signal (z-score),[5],-0.103
same,glycan array binding signal (z-score),[6],0.667
same,glycan array binding signal (z-score),[7],0.774
same,glycan array binding signal (z-score),[8],0.109
same,glycan array binding signal (z-score),[9],-0.561
same,glycan array binding signal (z-score),[10],-0.066
same,glycan array binding signal (z-score),[11],-0.069
same,glycan array binding signal (z-score),[12],-0.407
same,glycan array binding signal (z-score),[13],-0.243
same,glycan array binding signal (z-score),[14],-0.828
same,glycan array binding signal (z-score),[15],0.202
same,glycan array binding signal (z-score),[16],1.24
same,glycan array binding signal (z-score),[17],1.21
same,glycan array binding signal (z-score),[18],-0.334
same,glycan array binding signal (z-score),[19],-0.12
same,glycan array binding signal (z-score),[20],0.033
same,glycan array binding signal (z-score),[21],-0.071
same,glycan array binding signal (z-score),[22],0.994
same,glycan array binding signal (z-score),[23],0.343
same,glycan array binding signal (z-score),[24],-0.202
same,glycan array binding signal (z-score),[25],-1.32
same,glycan array binding signal (z-score),[26],-0.528
same,glycan array binding signal (z-score),[27],-0.932
same,glycan array binding signal (z-score),[28],-0.577
same,glycan array binding signal (z-score),[29],-0.484
same,glycan array binding signal (z-score),[30],0.034
same,glycan array binding signal (z-score),[31],0.453
same,glycan array binding signal (z-score),[32],-0.525
same,glycan array binding signal (z-score),[33],-0.492
same,glycan array binding signal (z-score),[34],-0.491
same,glycan array binding signal (z-score),[35],-0.345
same,glycan array binding signal (z-score),[36],-0.165
same,glycan array binding signal (z-score),[37],-0.577

# Some of the entries so far, with bars between the fields:
binder | measurement | setting | value
Layilin (Mus musculus), Q8C351 (protein) MQPGAALQAMLLAVLLAKPRDSKGRLLSASDLDPRGGQLVCRGGTRRPCYKVIYFHDAFQRLNFEEAKETCMEDGGQLVSIETEDEQRLIEKFIENLLASDGDFWIGLKRLEEKQSNNTACQDLYAWTDGSTSQFRNWYVDEPSCGSEVCVVMYHQPSAPPGIGGSYMFQWNDDRCNMKNNFICKYHDDKPSTTPSIWPGGEATEPATPLLPEETQKEDTKETFKERREAALNLAYILIPSIPLFLLLVVTSAVCWVWICRRKREQTDPSTKEQHTIWPTPRQENSPNLDVYNVIRKQSEADLAEPRPDLKNISFRVCSGEAMPDDMSCDYENIAVNPSESGFVTLASMESGFVTNDIYEFSPDRMGRSKESGWVENEIYY | glycan array binding signal (z-score) | [6] | 0.667
same | glycan array binding signal (z-score) | [8] | 0.109
same | glycan array binding signal (z-score) | [26] | -0.528

# Source: the supplement of paper PMC8728848
